The text below walks through data of article PMC10061497.

Chains of the proteins cited; added tags and fusions are not shown. Lines headed by an entry give the natural chain unless they say otherwise; changes in a name come on top.
UniProt Q38F23: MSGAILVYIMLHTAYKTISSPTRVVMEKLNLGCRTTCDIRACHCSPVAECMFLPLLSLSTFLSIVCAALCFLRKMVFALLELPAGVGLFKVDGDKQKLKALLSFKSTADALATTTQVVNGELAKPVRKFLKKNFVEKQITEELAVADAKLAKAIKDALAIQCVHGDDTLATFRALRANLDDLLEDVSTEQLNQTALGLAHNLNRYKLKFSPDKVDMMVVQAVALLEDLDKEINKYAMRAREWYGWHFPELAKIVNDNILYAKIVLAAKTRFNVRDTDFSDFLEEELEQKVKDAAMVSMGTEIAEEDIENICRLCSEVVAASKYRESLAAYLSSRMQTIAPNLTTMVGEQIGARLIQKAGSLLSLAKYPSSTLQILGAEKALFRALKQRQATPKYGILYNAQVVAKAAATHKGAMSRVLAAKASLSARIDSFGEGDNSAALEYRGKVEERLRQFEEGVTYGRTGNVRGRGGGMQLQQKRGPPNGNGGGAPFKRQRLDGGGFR

The assay addresses T1, T. brucei telomerase reverse transcriptase (TbTERT), FLAG-HA-HA tagged (Trypanosoma brucei) (UniProt Q383R0).
T1 sequence: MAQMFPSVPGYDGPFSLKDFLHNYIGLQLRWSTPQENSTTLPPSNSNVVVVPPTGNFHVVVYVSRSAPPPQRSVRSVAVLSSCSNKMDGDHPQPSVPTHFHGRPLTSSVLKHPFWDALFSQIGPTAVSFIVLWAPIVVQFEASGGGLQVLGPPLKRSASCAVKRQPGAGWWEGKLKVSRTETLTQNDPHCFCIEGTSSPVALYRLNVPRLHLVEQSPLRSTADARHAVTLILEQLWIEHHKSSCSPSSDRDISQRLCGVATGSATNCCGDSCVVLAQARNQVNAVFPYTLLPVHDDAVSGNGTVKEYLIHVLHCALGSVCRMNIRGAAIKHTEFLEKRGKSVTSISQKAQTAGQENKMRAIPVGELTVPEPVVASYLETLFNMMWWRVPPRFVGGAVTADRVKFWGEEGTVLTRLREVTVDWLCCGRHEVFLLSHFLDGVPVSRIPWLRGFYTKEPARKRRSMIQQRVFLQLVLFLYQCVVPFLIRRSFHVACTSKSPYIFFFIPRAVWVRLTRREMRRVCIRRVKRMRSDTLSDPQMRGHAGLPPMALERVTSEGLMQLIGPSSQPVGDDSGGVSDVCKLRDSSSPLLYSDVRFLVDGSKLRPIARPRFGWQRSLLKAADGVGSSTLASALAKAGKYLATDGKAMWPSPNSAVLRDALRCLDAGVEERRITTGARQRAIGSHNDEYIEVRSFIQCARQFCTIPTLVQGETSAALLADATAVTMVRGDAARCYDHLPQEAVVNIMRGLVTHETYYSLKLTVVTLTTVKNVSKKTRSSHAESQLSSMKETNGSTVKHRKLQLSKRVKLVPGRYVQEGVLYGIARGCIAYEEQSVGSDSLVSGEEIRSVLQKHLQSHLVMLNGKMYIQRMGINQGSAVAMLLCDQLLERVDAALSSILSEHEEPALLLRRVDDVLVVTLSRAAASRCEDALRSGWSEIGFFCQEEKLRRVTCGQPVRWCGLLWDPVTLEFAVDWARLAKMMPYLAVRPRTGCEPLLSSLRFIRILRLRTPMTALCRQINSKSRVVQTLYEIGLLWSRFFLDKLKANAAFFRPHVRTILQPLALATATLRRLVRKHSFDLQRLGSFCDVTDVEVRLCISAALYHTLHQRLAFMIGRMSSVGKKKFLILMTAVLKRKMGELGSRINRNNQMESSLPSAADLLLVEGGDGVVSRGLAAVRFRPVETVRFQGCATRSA
Briefly: co-IP; WT BF T. brucei cell lysate; IP antibody anti-TbTERT C terminus; western blot with anti-FLAG and anti-NOP58. (In general: A western blot detects proteins with antibodies after separation by electrophoresis.)

Results are given in words; binding and its absence hold for the method and conditions named. Binding seen in cells or lysates may run through a third protein. Binding calls can cover weak binding; strength is not graded here. Where a sequence is shown, tags or fusion partners need not be part of it.

For the substance “Nucleolar protein 58 (NOP58) (from UniProt Q38F23)”, the binding entry is on record as “binds”.
